In PubChem BioAssay AID2685 (National Center for Advancing Translational Sciences (NCATS), 2010):
This is one part of the list. Shown are side measurements of this screen, not its main read-out; they come without a call. Most of these compounds were active or inconclusive in the main read-out, so they are no random draw. The note in brackets gives the kind of curve behind each potency; many fits are weak.

Assay: qHTS Assay for Lipid Storage Modulators in Drosophila S3 Cells;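 on cell number change: cells counted by Cell Tracker Red CMTPX staining in the red channel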
Conditions: BODIPY lipid droplet fluorescence, 18-24 h; for cell number change: measured here: cell count max response, cells fed with added oleic acid
Procedure, shortened: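 Drosophila S3 cells got compounds at several concentrations plus oleic acid (400 uM solution). Laser-scanning cytometry with 488 nm excitation read lipid droplets at 500-530 nm and cells at 575-640 nm. Percent activity was relative to 20 uM Triacsin C.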

[1] = measured here: cell number channel AC50, cells fed with added oleic acid
[2] = measured here: lipid fluorescence (Fed channel) AC50, cells fed with added oleic acid

Compound | cell number change [%] | AC50 [1] | AC50 [2]
CCOC(=O)c1c(NC(=O)CSc2nc3ccc(C)cc3[nH]2)sc2c1CC(C)(C)NC2(C)C | -31.9 | 20.6 µM [falling, partial curve, poor fit] | 
Cc1ccc(Cn2cccc(NC(=O)CCC3CCCC3)c2=O)cc1 | -11.6 |  | 0.651 µM [falling, partial curve, poor fit]
S=C(Nc1ccc(Cl)cc1)Nc1ccc2cn[nH]c2c1 | 4.46 |  | 
COCCNC(=O)c1cc(OC)c(OC)cc1[N+](=O)[O-] | -7.99 |  | 29.1 µM [falling, single point]
O=C(NNC(=O)c1ccccc1)C(=O)N1CCCCC1 | -4.83 |  | 
COc1cc(OC)cc(C(=O)NNC(=O)c2ccccc2Br)c1 | 2.86 |  | 2.91 µM [rising, partial curve]
COCCN(Cc1nnc(-c2cccs2)o1)C(=O)c1cccc(S(=O)(=O)N2CCOCC2)c1 | -13.7 |  | 0.517 µM [rising, full curve]
Fc1ccc(C2CCCN2Cc2nc(-c3cnccn3)no2)cc1 (configuration not stated) | 19.6 |  | 14.6 µM [rising, partial curve, poor fit]
CCCn1c(=O)c2ccccc2n2c(SCC(=O)c3cc(C)n(CCOC)c3C)nnc12 | -15.2 |  | 
COC(=O)N/N=C/c1ccc(-c2ccc(Cl)cc2Cl)o1 | 8.19 |  | 18.4 µM [rising, single point]
CCN(Cc1ccccc1)C(c1cc2cc(C)ccc2[nH]c1=O)c1nnnn1CCOC (configuration not stated) | -23.6 |  | 
Cc1cc(NC(=O)COC(=O)c2cccc(O)c2)no1 | -31.9 | 32.6 µM [falling, single point] | 25.9 µM [falling, single point]
CCCN1C/C(=C/c2ccc3c(c2)OCO3)C(=O)/C(=C/c2ccc3c(c2)OCO3)C1 | 7.98 |  | 
CCOc1ccc(NC(=O)CC(Cc2ccc(Cl)cc2)C(=O)O)cc1 (configuration not stated) | -13.5 |  | 
CC(=O)N1c2ccc(S(=O)(=O)N3CCC(C(=O)N4CCCCC4)CC3)cc2CC1C (configuration not stated) | 6.45 |  | 
O=C(Oc1cccc2cccnc12)c1cccc([N+](=O)[O-])c1 | -5.85 |  | 4.11 µM [falling, single point]
O=C(O)C1CC(=O)N(c2ccc(OCc3c(F)cccc3Cl)cc2)C1 (configuration not stated) | -97.9 | 8.2 µM [falling, partial curve] | 
CCN1C(=NCc2cc(OC)c(OC)c(OC)c2)N[C@@H](c2ccccc2)[C@H](C(=O)OC)[C@H]1C | -9.21 |  | 
CCNC(=O)NC(=O)CSc1ccc2ccccc2c1 | 87 | 16.4 µM [rising, single point] | 18.4 µM [rising, partial curve]

Grouped by structure: the compounds so far containing a nitro group on carbon (two)
Compound | cell number change [%] | AC50 [1] | AC50 [2]
COCCNC(=O)c1cc(OC)c(OC)cc1[N+](=O)[O-] | -7.99 |  | 29.1 µM [falling, single point]
O=C(Oc1cccc2cccnc12)c1cccc([N+](=O)[O-])c1 | -5.85 |  | 4.11 µM [falling, single point]
